Taken from: PubChem BioAssay AID1224828 (NIAID, 2016)
Screen: 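Find genes required for NF-kappaB p65 moving into the nucleus after LPS in mouse macrophages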 (primary screen). System: mouse RAW264.7 G9 macrophage reporter cells (GFP-p65, Tnf promoter-mCherry). Reagents: siRNA pool against mouse genes, 100 nM. Timing: 2 days siRNA transfection, then 40 min LPS before fixation. Conditions: LPS (Salmonella minnesota R595) at 10 ng/ml. Measurement: 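Microscopy ratio of nuclear to perinuclear-ring GFP-p65 signal, scaled to the plate median; gene score is the average of two replicate robust z-scores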. Direction: p65 translocation robust z-score: higher = more nuclear NF-kappaB p65 after LPS than the plate median; nuclear/cytoplasmic p65 ratio: higher = more nuclear NF-kappaB p65. Active means: 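Active if robust z is above 3.3 (negative regulators) or below -1.56, the Tlr4 control median (positive regulators); activity score 50 or more; control wells not called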. Calls: active = hit (p65 shift raised or lowered); inactive = no clear change.
Shown is an unselected part of about 17,000 deposited reagents. In the full data, 762 (4.5%) are marked active. 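Active calls include both raised and lowered p65 entry, mostly lowered; wells with fewer than 50 cells lack a z-score.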 The raw values are shown without normalisation. The numbers tell different reagents against one gene apart. No sequences are given here.

The first 4 entries as a preview:
gene knocked down | reagent no. | p65 translocation robust z-score | nuclear/cytoplasmic p65 ratio, rep 1 | nuclear/cytoplasmic p65 ratio, rep 2 | low cell count flag | Outcome
Cyp4f14 | 1 | -1.07 | 1.41 | 1.62 | enough cells to score | inactive
Asb4 | 1 | -1.29 | 1.32 | 1.42 | enough cells to score | inactive
Adsl | 1 | -0.27 | 1.59 | 1.57 | enough cells to score | inactive
Gzma | 1 | -0.53 | 1.29 | 1.38 | enough cells to score | inactive

Results, from the first entry:
gene knocked down | reagent no. | p65 translocation robust z-score | nuclear/cytoplasmic p65 ratio, rep 1 | nuclear/cytoplasmic p65 ratio, rep 2 | low cell count flag | Outcome
Cyp4f14 | 1 | -1.07 | 1.41 | 1.62 | enough cells to score | inactive
Asb4 | 1 | -1.29 | 1.32 | 1.42 | enough cells to score | inactive
Adsl | 1 | -0.27 | 1.59 | 1.57 | enough cells to score | inactive
Gzma | 1 | -0.53 | 1.29 | 1.38 | enough cells to score | inactive
Spesp1 | 1 | – | 1.03 | 0.996 | fewer than 50 cells per well; well left out of scoring | inactive
Psmd14 | 1 | – | 1.45 | 1.34 | fewer than 50 cells per well; well left out of scoring | inactive
Mecom | 1 | -0.97 | 1.59 | 1.22 | enough cells to score | inactive
Mecom | 2 | -0.6 | 1.33 | 1.3 | enough cells to score | inactive
Kif3c | 1 | -0.83 | 1.33 | 1.31 | enough cells to score | inactive
Tada2a | 1 | 0.33 | 1.53 | 1.6 | enough cells to score | inactive
Txn1 | 1 | -0.35 | 1.54 | 1.38 | enough cells to score | inactive
Stat5a | 1 | 1.61 | 1.84 | 1.73 | enough cells to score | inactive
Etd | 1 | -1.28 | 1.39 | 1.34 | enough cells to score | inactive
Guk1 | 1 | 0.81 | 1.67 | 1.75 | enough cells to score | inactive
Aspscr1 | 1 | 0.71 | 1.74 | 1.7 | enough cells to score | inactive
Pdgfc | 1 | – | 1.05 | 1.1 | fewer than 50 cells per well; well left out of scoring | inactive
Il20ra | 1 | 0.26 | 1.57 | 1.37 | enough cells to score | inactive
Rrm1 | 1 | – | 0 | 0.981 | fewer than 50 cells per well; well left out of scoring | inactive
Myl12b | 1 | 0.26 | 1.84 | 1.73 | enough cells to score | inactive
Prss23 | 1 | – | 1.22 | 1.06 | fewer than 50 cells per well; well left out of scoring | inactive
Gpr27 | 1 | -0.77 | 1.38 | 1.49 | enough cells to score | inactive
Szrd1 | 1 | 3.28 | 2.31 | 1.76 | enough cells to score | inactive
Cltrn | 1 | – | 1.07 | 1.13 | fewer than 50 cells per well; well left out of scoring | inactive
Neurog1 | 1 | -0.69 | 1.7 | 1.47 | enough cells to score | inactive
Sprr2k | 1 | -0.55 | 1.28 | 1.23 | enough cells to score | inactive
Serpinb3c | 1 | -0.65 | 1.35 | 1.15 | enough cells to score | inactive
Mettl18 | 1 | -2.18 | 1.02 | 1.01 | enough cells to score | active
Eaf1 | 1 | – | 1.26 | 1.22 | fewer than 50 cells per well; well left out of scoring | inactive
Rnf14 | 1 | 0.25 | 1.51 | 1.6 | enough cells to score | inactive
Tfpt | 1 | -0.7 | 1.39 | 1.45 | enough cells to score | inactive
Wif1 | 1 | – | 1.71 | 1.2 | fewer than 50 cells per well; well left out of scoring | inactive
Csgalnact2 | 1 | 1.97 | 1.82 | 1.79 | enough cells to score | inactive
Tmem69 | 1 | -0.73 | 1.2 | 1.51 | enough cells to score | inactive
Vmn1r63 | 1 | -0.14 | 1.48 | 1.17 | enough cells to score | inactive
Dpep1 | 1 | 0.92 | 1.64 | 1.46 | enough cells to score | inactive
Gchfr | 1 | – | 2.21 | 1.23 | fewer than 50 cells per well; well left out of scoring | inactive
Prxl2a | 1 | 0.27 | 1.4 | 1.5 | enough cells to score | inactive
Vmn1r218 | 1 | – | 1.4 | 1.19 | fewer than 50 cells per well; well left out of scoring | inactive
Rnase1 | 1 | 1.19 | 1.57 | 1.35 | enough cells to score | inactive
Mettl27 | 1 | -0.76 | 1.36 | 1.84 | enough cells to score | inactive
Mmp19 | 1 | -0.47 | 1.43 | 1.24 | enough cells to score | inactive
Egfl8 | 1 | -0.1 | 1.48 | 1.33 | enough cells to score | inactive
Isl1 | 1 | -1.47 | 1.27 | 1.24 | enough cells to score | inactive
Alg9 | 1 | 0.97 | 1.52 | 1.55 | enough cells to score | inactive
Dynlt5 | 1 | 1.19 | 1.49 | 1.63 | enough cells to score | inactive
Tas2r119 | 1 | 0.58 | 1.58 | 1.69 | enough cells to score | inactive
Fbxl4 | 1 | 0.43 | 1.5 | 1.44 | enough cells to score | inactive
Grid1 | 1 | – | 1.55 | 1.18 | fewer than 50 cells per well; well left out of scoring | inactive
Dscaml1 | 1 | – | 1.09 | 1.08 | fewer than 50 cells per well; well left out of scoring | inactive
Tpsg1 | 1 | – | 1.37 | 1.37 | fewer than 50 cells per well; well left out of scoring | inactive
Abcc2 | 1 | 0.58 | 1.67 | 1.73 | enough cells to score | inactive
Tnfrsf10b | 1 | -1.76 | 1.46 | 1.12 | enough cells to score | active
Hsd11b1 | 1 | -0.9 | 1.38 | 1.2 | enough cells to score | inactive
Vmn1r192 | 1 | -0.9 | 1.29 | 1.13 | enough cells to score | inactive
Gbgt1 | 1 | -0.5 | 1.49 | 1.42 | enough cells to score | inactive
Bend3 | 1 | -1.41 | 1.3 | 1.56 | enough cells to score | inactive
Tgif2 | 1 | -0.62 | 1.49 | 1.38 | enough cells to score | inactive
Tbc1d19 | 1 | – | 1.28 | 1.21 | fewer than 50 cells per well; well left out of scoring | inactive
Pabpc6 | 1 | – | 0 | 1.67 | fewer than 50 cells per well; well left out of scoring | inactive
